Some results were stated once for a whole list of compounds, not compound by compound.
B1: 1F1: hybridoma anti-CD200R1 clone; VH SEQ ID NO: 135, VL SEQ ID NO: 142 (antibody, V domains shown)
VH: QVQLQQPGAEFVKPGAPVKLSCKASGYTFTSYWMNWVKQRPGRGLEWIGRIDPADSEIHYNQKFKDKATLTVDKSSSTAYIQFSSLTSEDSAVYYCARSGGWLPGFAYWGQGTLVTVSA
VL: ENVLTQSPAIMSASPGEKVTMTCSASSSLIYMHWYQQKSSTSPKLWIYDTSKLASGVPGRFSGSGSGNSYSLTINSMEAEDVATYYCFQGSGYPLMYTFGGGTKLEIK
B2: 1H10: hybridoma anti-CD200R1 clone; VH SEQ ID NO: 136, VL SEQ ID NO: 143 (antibody, V domains shown)
VH: QVQLQQPGAELVKPGTSVKLSCKASGYNFTSYWINWVKLRPGQGLEWIGDINPGSGSTNYNEKFRSKATLTVGTSSSTAYMQLSSLASEDSALYYCAREDYYGSRFFYWGQGTLVTVSA
VL: DVVMTQTPLSLPVSLGDQASISCRSSQSLVHSNGNTYLHWYLQKPGQSPKLLIYKVSNRFSGVPDRFSGSGSGTDFTLKISRVEAEDLGVYFCSQSTHVTFGAGTKLELK
B3: 3G4: hybridoma anti-CD200R1 clone; VH SEQ ID NO: 137, VL SEQ ID NO: 144 (antibody, V domains shown)
VH: QVQLQQPGAELVKPGAPVKLSCKASGFTLTSYWMNWVKQRPGRGLEWIGRIDPSDSETHYNQKFKDKATLTVDKSSSTAYIQLTSLTSEDSAVYYCARSGGWLPGFAYWGQGTLVTVSA
VL: ENVLTQSPAIMSASPGEKVTMTCSARSSVSYMHWYQQKSRTSPKLWIYDTSKLASGVPGRFSGSGSGNSYSLTISSMEAEDVATYYCFQGSGDPLMYTFGGGTKLEIK
B4: 5E9: hybridoma anti-CD200R1 clone; VH SEQ ID NO: 138, VL SEQ ID NO: 145 (antibody, V domains shown)
VH: QVQLQQSGAELARPGASVKLSCKASGYTFTSYWMQWVKQRPGQGLEWIGAIYPGDGDTRYTQKFKGKATLTADKSSSTAYMQLRSLASEDSAVFYCARGGVTTLVPYFFDYWGQGATLTVSS
VL: DVLMTQTPLSLPVSLGDQASISCRSSQSIVHSNGNTYLEWYLQKPGQSPKLLIYKVSNRFSGVPDRFSGSGSGTDFTLKISRVEAEDLGVYYCFQGSHVPPTFGGGTKLEIK
B5: 6A8: hybridoma anti-CD200R1 clone; VH SEQ ID NO: 139, VL SEQ ID NO: 146 (antibody, V domains shown)
VH: QVQLQQPGAELVKPGAPVKLSCKASGYTFTSYWMNWVKQRPGRGLEWIGRIDPSDSETHYNQKFKDKATLTVDKSSSTAYIQLSSLTSEDSAVYYCARSGGWLPGFAYWGQGTLVTVSA
VL: ENVLTQSPAIMSASPGEKVTMTCSASSSLSYMLWYQQKSSTSPKLWIYDTSKLASGVPGRFSGSGSGNSYSLTISSMEAEDVGTYYCFQGSGNPLMYTFGGGTKLEIK
B6: P001002: phage display anti-CD200R1 clone; VH SEQ ID NO: 72, VL SEQ ID NO: 87 (antibody, V domains shown)
VH: EVQLLESGGGLVQPGGSLRLSCAASGFTFSSYAMSWVRQAPGKGLEWVSWISYDSSSKYYADSVKGRFTISRDNSKNTLYLQMNSLRAEDTAVYYCARGVVQPYLWTEFDYWGQGTLVTVSS
VL: QSVLTQPPSASGTPGQRVTISCSGSSSNIGSNYVNWYQQLPGTAPKLLIYSDSHRPSGVPDRFSGSKSGTSASLAISGLRSEDEADYYCGSWDDSLSGYVFGGGTKLTVL
B7: P001006: phage display anti-CD200R1 clone; VH SEQ ID NO: 76, VL SEQ ID NO: 91 (antibody, V domains shown)
VH: EVQLLESGGGLVQPGGSLRLSCAASGFTFSDYAMSWVRQAPGKGLEWVSGISYGNGNTYYADSVKGRFTISRDNSKNTLYLQMNSLRAEDTAVYYCAKDPWQTAINDFDYWGQGTLVTVSS
VL: QSVLTQPPSASGTPGQRVTISCTGSSSNIGNNSVNWYQQLPGTAPKLLIYTNSHRPSEVPDRFSGSKSGTSASLAISGLRSEDEADYYCGTWDSSLSGYVFGGGTKLTVL
B8: P001008: phage display anti-CD200R1 clone; VH SEQ ID NO: 78, VL SEQ ID NO: 93 (antibody, V domains shown)
VH: EVQLLESGGGLVQPGGSLRLSCAASGFTFSSYDMSWVRQAPGKGLEWVSWISHGGGSIYYADSVKGRFTISRDNSKNTLYLQMNSLRAEDTAVYYCARDAPALMHSLFDYWGQGTLVTVSS
VL: QSVLTQPPSASGTPGQRVTISCSGSSSNIGSNHVNWYQQLPGTAPKLLIYYDSQRPSGVPDRFSGSKSGTSASLAISGLRSEDEADYYCGSWDASLNGYVFGGGTKLTVL
B9: P001009: phage display anti-CD200R1 clone; VH SEQ ID NO: 79, VL SEQ ID NO: 94 (antibody, V domains shown)
VH: EVQLLESGGGLVQPGGSLRLSCAASGFTFSSYDMSWVRQAPGKGLEWVSWISHGGGSIYYADSVKGRFTISRDNSKNTLYLQMNSLRAEDTAVYYCARDAPAYSAPLFDYWGQGTLVTVSS
VL: QSVLTQPPSASGTPGQRVTISCSGSSSNIGNNAVNWYQQLPGTAPKLLIYYDSNRPSGVPDRFSGSKSGTSASLAISGLRSEDEADYYCAAWDDSLSGYVFGGGTKLTVL
B10: P001018: humanized P001017, CDR-grafting only; VH SEQ ID NO: 150, VL SEQ ID NO: 155 (antibody, V domains shown)
VH: QVQLVQSGAEVKKPGASVKVSCKASGYTFTSYVMHWVRQAPGQGLEWMGYINPYNDDTNYNEKFKGRVTMTRDTSTSTVYMELSSLRSEDTAVYYCAREDYYGSRWGYWGQGTLVTVSS
VL: DIVLTQSPASLAVSPGQRATITCRASKSVSTSGYSYMHWYQQKPGQPPKLLIYLASNLESGVPARFSGSGSGTDFTLTINPVEANDTANYYCQHSRELLTFGQGTKVEIK

Key:
[1] = target: T1, human CD200R1 (Homo sapiens, UniProt Q8TD46); assay: Hybridoma clone ELISA binding to antigen; settings: hybridoma clones
T1 sequence (Q8TD46 25-348): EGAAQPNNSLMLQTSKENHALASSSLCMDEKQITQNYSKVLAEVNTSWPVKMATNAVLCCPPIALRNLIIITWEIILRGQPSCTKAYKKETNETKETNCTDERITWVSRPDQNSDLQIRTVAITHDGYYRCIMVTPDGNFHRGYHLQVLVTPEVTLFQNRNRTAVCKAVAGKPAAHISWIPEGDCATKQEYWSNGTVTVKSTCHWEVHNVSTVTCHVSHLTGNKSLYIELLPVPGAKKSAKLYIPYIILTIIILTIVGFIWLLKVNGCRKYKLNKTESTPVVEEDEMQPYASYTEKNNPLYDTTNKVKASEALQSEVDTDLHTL

[2] = target: T2, CD200R1 on Jurkat-CD200R1 cells (Homo sapiens, UniProt Q8TD46); assay: Cell binding assay (flow cytometry), Jurkat-CD200R1 cells; format: cell-based; settings: 500 nM, IgG1 form
T2 construct: host or cells: Jurkat
T2 sequence (Q8TD46 25-348): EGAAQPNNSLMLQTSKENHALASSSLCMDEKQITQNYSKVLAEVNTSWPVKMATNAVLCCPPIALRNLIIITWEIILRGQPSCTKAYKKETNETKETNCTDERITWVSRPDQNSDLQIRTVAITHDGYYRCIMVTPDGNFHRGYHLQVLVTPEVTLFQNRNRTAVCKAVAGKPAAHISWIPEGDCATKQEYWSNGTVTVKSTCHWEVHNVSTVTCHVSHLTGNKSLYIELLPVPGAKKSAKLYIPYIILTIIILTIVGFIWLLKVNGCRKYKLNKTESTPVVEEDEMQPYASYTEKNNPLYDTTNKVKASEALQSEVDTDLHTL
Procedure: (§1) The binding ability of the antibodies identified using unique multifaceted antibody discovery technology was identified in HH (CRL-2105) cells, which endogenously express CD200R1, and Jurkat-CD200R1 cells (Source: DiscoverX), which were generated by intranuclear injection of CD200R1 cDNA.
(§2) HH and Jurkat-CD200R1 cells were maintained in RPMI 1640 medium supplemented with 10% heat-inactivated FBS and 1% Penicillin/Streptomycin (P/S). The cells were washed by centrifugation at 130 g for 5 minutes. The cells were seeded onto 96-well round-bottom plates (SPL, #34296) at a density of 1×10^5 cells/well in Flow cytometry staining buffer (Invitrogen, #00-4222-26) or FACS buffer. The cells were treated with all 16 substances and the positive control LY3454738 (US 2020/0087395, I-4P, at Eli Lilly) a concentration of 500 nM in the IgG1 form. After incubation for 1 hour at 4° C., the cells were treated with Alexa-647 Goat anti-human IgG (H+L) cross-adsorbed secondary antibody (Invitrogen, #A21445) and incubated at 4° C. for an additional 30 minutes. After washing twice with FACS buffer, flow cytometry analysis was performed using a Novocyte Flow cytometer (Agilent).
(§3) Cell-binding ability was determined in the same manner as in Example 12. For the six active substances primarily selected in Example 12, the isotype was changed to IgG4 or the LALAPG gene was mutated, and binding activity was determined in the two cell lines mentioned above.
(§4) Binding ability was determined in HH, an endogenous T cell line with high CD200R1 expression, and two additional overexpressing cell lines: U937-CD200R overexpressing cells, generated by intranuclear injection of human CD200R1 CDNA into the monocytic cell line U937 (CRL-1593.2) (Source: UMC Utrecht, the Netherlands) and Jurkat-CD200R overexpressing cells, were also cells engineered using a similar method.
(§5) All cell lines were maintained in RPMI 1640 medium supplemented with 10% heat-inactivated FBS and 1% penicillin/streptomycin (P/S) and cell binding was determined in the same manner as in Example 12. Two additional wells were treated with 10 μl of mouse IgG1K (BD, #555751) and 5 μl of commercial CD200R1 antibody (Biolegend, #329308) to determine CD200R1 expression on the cell line surface for cell quality control.
(§6) Specific binding ability was determined using P001009 WT and antibody-optimized mutants, P001009v1, P001009v2, P001009v3, and P001009v4. The antibodies were serially diluted 10-fold from a maximum concentration of 100 nM to 10 nM, 1 nM, […], and were added to the pre-seeded cells. After reaction for 1 hour at 4° C., the cells were treated with Alexa-647 goat anti-human IgG (H+L) cross-adsorbed secondary antibody (Invitrogen, #A21445) and incubated for an additional 30 minutes at 4° C. After washing twice with FACS buffer, flow cytometry was performed using a Novocyte Flow cytometer (Agilent). Using GraphPad Prism software, the EC50 was determined using a nonlinear graph model of log (agonist) vs. response-variable slope, as shown in Table 32.

[3] = target: T3, CD200R1 on HH (CRL-2105) cells (Homo sapiens, UniProt Q8TD46); assay: Cell binding assay (flow cytometry), HH cells; format: cell-based; settings: 500 nM, IgG1 form
T3 construct: HH (CRL-2105) cells, which endogenously express CD200R1; host or cells: HH (CRL-2105) cells
T3 sequence (Q8TD46 25-348): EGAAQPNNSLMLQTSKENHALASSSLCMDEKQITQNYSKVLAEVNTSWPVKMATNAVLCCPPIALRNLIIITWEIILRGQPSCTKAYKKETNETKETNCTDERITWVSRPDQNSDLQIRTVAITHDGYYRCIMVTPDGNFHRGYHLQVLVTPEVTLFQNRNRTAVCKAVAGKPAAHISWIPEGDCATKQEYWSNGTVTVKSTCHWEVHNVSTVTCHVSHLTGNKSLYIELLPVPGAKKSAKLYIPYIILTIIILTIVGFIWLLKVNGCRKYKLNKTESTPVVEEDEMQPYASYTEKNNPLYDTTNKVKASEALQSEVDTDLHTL
Procedure: as §1, §2, §3, §4, §5, §6

| Molecule | ELISA O.D., negative antigen [1] | binding ability, MFI normalized to P001017 [2] | binding ability, MFI normalized to P001017 [3] |
| --- | --- | --- | --- |
| B1 | ≤ 0.04 |  |  |
| B2 | ≤ 0.04 |  |  |
| B3 | ≤ 0.04 |  |  |
| B4 | ≤ 0.04 |  |  |
| B5 | ≤ 0.04 |  |  |
| B6 |  | over 50% | over 50% |
| B7 |  | over 50% | over 50% |
| B8 |  | over 50% | over 50% |
| B9 |  | over 50% | over 50% |
| B10 |  | over 50% | over 50% |

Reference: patent US20260263521A1, “ANTI-CD200R1 ANTIBODY AND USE THEREOF” (AIMED BIO INC., priority 2023, published 2026)
